Each number is a percent effect as filed. The record does not define 0% and 100%; most values in the screen are far below 50% and negative numbers occur (in some assays of this library far below -100). The compounds are a random part of those screened.

Amino acid sequences for entries named in this document (tags omitted). Residues count along the entry.
UniProt I6X8D2, whole entry: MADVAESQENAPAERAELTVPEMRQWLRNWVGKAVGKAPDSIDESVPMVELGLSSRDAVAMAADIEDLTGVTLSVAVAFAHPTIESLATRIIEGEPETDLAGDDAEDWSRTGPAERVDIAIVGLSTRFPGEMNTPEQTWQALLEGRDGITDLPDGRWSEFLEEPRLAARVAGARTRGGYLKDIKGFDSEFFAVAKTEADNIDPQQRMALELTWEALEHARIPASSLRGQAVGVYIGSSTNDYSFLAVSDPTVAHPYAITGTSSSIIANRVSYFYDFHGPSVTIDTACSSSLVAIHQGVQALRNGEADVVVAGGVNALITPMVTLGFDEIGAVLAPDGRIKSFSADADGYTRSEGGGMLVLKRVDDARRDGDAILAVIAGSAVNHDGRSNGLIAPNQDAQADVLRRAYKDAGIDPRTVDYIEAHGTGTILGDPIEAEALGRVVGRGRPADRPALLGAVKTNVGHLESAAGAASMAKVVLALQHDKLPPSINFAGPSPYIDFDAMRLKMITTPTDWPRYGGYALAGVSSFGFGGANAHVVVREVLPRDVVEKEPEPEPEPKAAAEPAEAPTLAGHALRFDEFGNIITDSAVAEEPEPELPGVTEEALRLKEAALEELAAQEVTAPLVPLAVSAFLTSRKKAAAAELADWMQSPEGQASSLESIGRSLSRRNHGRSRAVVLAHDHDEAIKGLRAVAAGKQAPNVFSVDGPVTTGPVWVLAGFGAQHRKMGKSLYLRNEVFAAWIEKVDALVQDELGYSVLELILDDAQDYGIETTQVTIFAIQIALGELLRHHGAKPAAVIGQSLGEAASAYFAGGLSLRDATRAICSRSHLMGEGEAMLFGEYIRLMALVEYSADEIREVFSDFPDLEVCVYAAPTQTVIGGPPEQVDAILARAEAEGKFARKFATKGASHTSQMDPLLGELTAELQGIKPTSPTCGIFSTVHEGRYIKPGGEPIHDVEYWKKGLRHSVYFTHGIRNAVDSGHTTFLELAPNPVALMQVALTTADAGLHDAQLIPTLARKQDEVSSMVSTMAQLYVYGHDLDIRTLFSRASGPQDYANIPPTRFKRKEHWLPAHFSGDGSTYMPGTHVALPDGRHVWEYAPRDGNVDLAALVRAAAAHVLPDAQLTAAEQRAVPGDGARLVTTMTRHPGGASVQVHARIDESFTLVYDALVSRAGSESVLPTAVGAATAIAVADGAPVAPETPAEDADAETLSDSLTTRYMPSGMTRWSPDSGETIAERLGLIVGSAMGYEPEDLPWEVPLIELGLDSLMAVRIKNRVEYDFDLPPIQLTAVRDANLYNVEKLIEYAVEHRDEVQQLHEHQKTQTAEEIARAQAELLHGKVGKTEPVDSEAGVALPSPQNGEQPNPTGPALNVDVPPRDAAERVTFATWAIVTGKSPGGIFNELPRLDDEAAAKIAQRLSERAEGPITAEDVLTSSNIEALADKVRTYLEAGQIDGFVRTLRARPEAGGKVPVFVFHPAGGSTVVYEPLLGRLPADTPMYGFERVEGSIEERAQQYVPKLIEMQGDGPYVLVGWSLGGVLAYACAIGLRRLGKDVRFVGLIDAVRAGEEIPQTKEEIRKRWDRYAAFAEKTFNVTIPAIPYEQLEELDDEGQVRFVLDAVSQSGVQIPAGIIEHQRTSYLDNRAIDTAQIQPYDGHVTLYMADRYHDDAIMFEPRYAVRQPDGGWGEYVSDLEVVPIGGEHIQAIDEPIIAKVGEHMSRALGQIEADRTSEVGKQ
UniProt Q4DA54, 1-478: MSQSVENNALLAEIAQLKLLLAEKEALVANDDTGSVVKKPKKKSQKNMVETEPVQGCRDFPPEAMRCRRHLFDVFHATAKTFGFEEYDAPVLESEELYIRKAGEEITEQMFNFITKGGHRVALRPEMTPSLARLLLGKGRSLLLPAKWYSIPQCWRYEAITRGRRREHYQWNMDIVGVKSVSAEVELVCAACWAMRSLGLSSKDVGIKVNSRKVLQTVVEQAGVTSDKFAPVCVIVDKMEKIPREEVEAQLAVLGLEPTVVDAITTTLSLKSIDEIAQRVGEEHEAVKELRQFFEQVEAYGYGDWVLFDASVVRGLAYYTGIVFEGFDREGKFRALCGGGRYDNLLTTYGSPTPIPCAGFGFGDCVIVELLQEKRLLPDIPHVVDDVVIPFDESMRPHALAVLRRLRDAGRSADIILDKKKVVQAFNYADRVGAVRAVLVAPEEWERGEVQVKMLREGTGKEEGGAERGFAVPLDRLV
UniProt A4I591, 1-473: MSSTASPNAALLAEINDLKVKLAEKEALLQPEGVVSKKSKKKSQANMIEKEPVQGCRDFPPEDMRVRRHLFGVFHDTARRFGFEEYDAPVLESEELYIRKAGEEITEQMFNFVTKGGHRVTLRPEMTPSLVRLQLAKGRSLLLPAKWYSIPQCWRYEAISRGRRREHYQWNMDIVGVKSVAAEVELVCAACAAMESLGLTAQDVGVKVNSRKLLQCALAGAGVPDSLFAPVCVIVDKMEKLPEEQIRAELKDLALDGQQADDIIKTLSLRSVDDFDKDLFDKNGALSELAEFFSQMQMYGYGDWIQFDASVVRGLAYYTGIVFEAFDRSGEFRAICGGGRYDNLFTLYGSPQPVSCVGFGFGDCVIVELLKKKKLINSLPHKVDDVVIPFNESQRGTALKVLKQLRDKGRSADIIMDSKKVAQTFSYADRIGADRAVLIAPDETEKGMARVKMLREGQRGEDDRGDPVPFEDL

A: 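Enzyme assay of the thioesterase domain of polyketide synthase 13; the read-out is not stated. Target: Polyketide synthase Pks13, Mycobacterium tuberculosis (UniProt I6X8D2). Concentration: 30 µM. The record gives no direction; the compounds picked for IC50 retests had high values, so higher reads as stronger inhibition. Size under these conditions: about 67,000 compounds, about 300 of them at 50% or above in at least one test.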
B: 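Enzyme assay of histidyl-tRNA synthetase; the read-out is not stated. Target: Histidine-tRNA ligase, Trypanosoma cruzi CL Brener (UniProt Q4DA54). Concentration: 30 µM. Direction is inferred from retests: higher values go with stronger inhibition. Of about 69,000 compounds tested this way, about 31 (0.045%) reached 50% or more in at least one test.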
C: 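Enzyme assay of histidyl-tRNA synthetase; the read-out is not stated. Target: Histidine-tRNA ligase, Leishmania infantum (UniProt A4I591). Concentration: 30 µM. Higher reads as stronger inhibition (inferred: compounds with an IC50 in retests scored well above the rest). The assay is labelled LdHisRS but filed under L. infantum. Size under these conditions: about 69,000 compounds, about 410 of them at 50% or above in at least one test.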

{"compound": "Cc1nc[nH]c1CN1CCC2(CC1)CC(Nc1ncccn1)CO2", "stereo": "stereo unspecified", "A": 7.337, "B": 0.6135, "C": 17.28}
{"compound": "Cc1ccc(F)cc1S(=O)(=O)NCc1cccc(C(=O)N2CCCC2)c1", "A": -59.36, "B": 1.425, "C": 3.419}
{"compound": "CCn1c(Cn2cncn2)nnc1C1CCN(C2CCNCC2)CC1", "A": -3.842, "B": 3.614, "C": 20.51}
{"compound": "CNc1cc(C(=O)NCCC2=CSC3=NCCCN23)ccn1", "A": -30.79, "B": 8.458, "C": 19.58}
{"compound": "CCCc1nnc(NCc2ccc(OC)c(C#N)c2)o1", "A": -5.596, "B": 2.299, "C": 0}
{"compound": "COCC(=O)N1CCc2cccc(S(=O)(=O)N3CCN(C)CC3)c2C1", "A": -12.35, "B": 5.263, "C": 8.065}
{"compound": "Cn1nnc2c(sc3nc(N4CCOCC4)c4c(c32)CCC4)c1=O", "A": -4.132, "B": 2.97, "C": 12.09}
{"compound": "COC(=O)c1cccc(OCCn2nc(-c3cccs3)oc2=O)c1", "A": 2.669, "B": -11.11, "C": 0}
{"compound": "Cc1cc(C)c2ncn(CCOCCO)c(=O)c2c1", "A": -34.72, "B": 11.84, "C": 15.83}
{"compound": "Cc1nnc([C@H]2C[C@H]3OCC[C@H]3N(S(=O)(=O)C3CC3)C2)o1", "A": -18.16, "B": 2.454, "C": 17.09}
{"compound": "CC(c1nc(C(C)(C)C)no1)S(=O)(=O)CC(=O)N(C)C", "stereo": "stereo unspecified", "A": -39.44, "B": 4.741, "C": 18.99}
{"compound": "CSc1ccc(CN(C)C(=O)c2cc3c([nH]c2=O)CCCC3=O)cc1", "A": -30.02, "B": 5.539, "C": 12.84}
{"compound": "COc1ccc(-c2cc(CN)nc3ccnn23)cc1", "A": 6.196, "B": 3.39, "C": 2.857}
{"compound": "N#Cc1cc(NC(=O)c2ccccc2)ccc1N1CCC(O)CC1", "A": -20.34, "B": 0.8333, "C": 25}
{"compound": "O=c1[nH]nc2c(N3CCOCC3)nccn12", "A": -17.77, "B": 1.775, "C": 11.03}
{"compound": "O=C(NCCO)c1sc2ncccc2c1C1CN(C2CCCC2)CCO1", "stereo": "stereo unspecified", "A": 2.226, "B": 8.527, "C": 12.77}
{"compound": "CC(C)n1ccnc1C1CCCN(c2cncc(N(C)C)n2)C1", "stereo": "stereo unspecified", "A": -8.746, "B": 2.235, "C": 13.54}
{"compound": "CC1(C)CN(C(=O)c2cnc(-c3ccccn3)nc2)CC[C@]1(C)O", "A": -35.77, "B": 5.056, "C": 15.38}
{"compound": "COc1c(C2CCCN2C(=O)c2sccc2C#N)c(C)nn1C", "stereo": "stereo unspecified", "A": 1.21, "B": 4.124, "C": 4.839}
{"compound": "Cc1cc(CNC(=O)Cc2c(C)nc3cc(=O)[nH]n3c2C)no1", "A": -25.27, "B": 1.765, "C": 11.01}
{"compound": "CN(CC(=O)N(C)C1CCN(CC2CCOC2)CC1)c1ccccc1", "stereo": "stereo unspecified", "A": -8.563, "B": 1.587, "C": 20.59}
{"compound": "Cc1ccsc1C(=O)Nc1cnn(CC(=O)NC2CCCC2)c1", "A": -4.53, "B": 2.041, "C": 3.226}
{"compound": "Cc1cnn(-c2ccc(C(=O)N3CCN(C)CC3C)cc2)c1", "stereo": "stereo unspecified", "A": 5.49, "B": 2.469, "C": 0}
{"compound": "Cc1ccc(CN2CCOC3(COCCN(S(C)(=O)=O)C3)C2)s1", "stereo": "stereo unspecified", "A": -28.82, "B": -0.4975, "C": 21.62}
{"compound": "Cc1cc(NC(=O)[C@H]2CCCCN2C(=O)OC(C)(C)C)no1", "A": -10.73, "B": 7.407, "C": 12.12}
{"compound": "CCc1ncc(C(=O)c2ccc(OC)cc2)n1C", "A": -6.747, "B": 2.591, "C": -7.865}
{"compound": "Cc1nn(CCNC(=O)c2cc(C3CC3)[nH]n2)c(C)c1Cl", "A": -13.33, "B": 0.8772, "C": 7.143}
{"compound": "Cc1nonc1CN(C)c1nc(-c2ccco2)nc2c1CCN(C)CC2", "A": -2.278, "B": 6.468, "C": -30.12}
{"compound": "COc1cc(C)ccc1OCc1nc(C(=O)N2CCCC2)co1", "A": -2.112, "B": 3.448, "C": 0}
{"compound": "COc1cc(C(=O)NCC2CCCO2)nc2c(C)cc(F)cc12", "stereo": "stereo unspecified", "A": -0.9869, "B": 8.911, "C": 2.174}
{"compound": "COC[C@]12COC[C@H]1CN(Cc1ccc3c(c1)OCO3)C2", "A": -2.071, "B": -4.523, "C": 1.98}
{"compound": "Cc1cc(N2CCN(C(=O)c3cccnc3)CC2)nc(C)n1", "A": 5.163, "B": 6.202, "C": 15.6}
{"compound": "CC(NC(=O)c1ccc(=O)n(C)c1)c1ccccc1-n1cccn1", "stereo": "stereo unspecified", "A": 2.072, "B": 6.25, "C": 19.51}
{"compound": "COc1ccc(CN(C)CC2(O)CCN(C(=O)c3cccn3C)C2)cc1", "stereo": "stereo unspecified", "A": -29.2, "B": 4.865, "C": -2.778}
{"compound": "Cc1nnc(N2C[C@H](C(=O)NCc3ccco3)[C@@H]3CCO[C@@H]3C2)s1", "A": -31.22, "B": 4.301, "C": 16.81}
{"compound": "O=C(NCCNS(=O)(=O)c1ccc2c(c1)CCCC2)c1ccoc1", "A": -2.007, "B": -1.245, "C": 18.45}
{"compound": "CCc1nnc(CN2CCCC2Cn2cc(C)cn2)o1", "stereo": "stereo unspecified", "A": 3.662, "B": 1.163, "C": -7.143}

Repeated from the top, 5 entries:

compound	A	B	C
Cc1nc[nH]c1CN1CCC2(CC1)CC(Nc1ncccn1)CO2 (stereo unspecified)	7.337%	0.6135%	17.28%
Cc1ccc(F)cc1S(=O)(=O)NCc1cccc(C(=O)N2CCCC2)c1	-59.36%	1.425%	3.419%
CCn1c(Cn2cncn2)nnc1C1CCN(C2CCNCC2)CC1	-3.842%	3.614%	20.51%
CNc1cc(C(=O)NCCC2=CSC3=NCCCN23)ccn1	-30.79%	8.458%	19.58%
CCCc1nnc(NCc2ccc(OC)c(C#N)c2)o1	-5.596%	2.299%	0%

Source: ChEMBL document CHEMBL3988442, “University of Dundee, Small-Polar-MMV Screening Library” (2021).